In publication PMC6220109:
No constants are given. Whether binding was seen depends on the method and setting. Some binding calls cover weakened binding; strength is not graded here. For part of these data: Where a sequence is shown, tags or fusion partners need not be part of it. Blank lines part the entries; values can stand above or below the binder they belong to.

Legend:
[1] = target: T1, RCC region of PfRCC-PIP (AA 1-399) (pGBKT7 two-hybrid construct) (P. falciparum) (UniProt Q8I2V4); assay: two-hybrid; mating of Y187 (pGBKT7 constructs) with Y2HGold (pGADT7 constructs); diploids checked on Ddo, interactions on Tdo (low stringency) and Qdo (high stringency) medium
T1 sequence: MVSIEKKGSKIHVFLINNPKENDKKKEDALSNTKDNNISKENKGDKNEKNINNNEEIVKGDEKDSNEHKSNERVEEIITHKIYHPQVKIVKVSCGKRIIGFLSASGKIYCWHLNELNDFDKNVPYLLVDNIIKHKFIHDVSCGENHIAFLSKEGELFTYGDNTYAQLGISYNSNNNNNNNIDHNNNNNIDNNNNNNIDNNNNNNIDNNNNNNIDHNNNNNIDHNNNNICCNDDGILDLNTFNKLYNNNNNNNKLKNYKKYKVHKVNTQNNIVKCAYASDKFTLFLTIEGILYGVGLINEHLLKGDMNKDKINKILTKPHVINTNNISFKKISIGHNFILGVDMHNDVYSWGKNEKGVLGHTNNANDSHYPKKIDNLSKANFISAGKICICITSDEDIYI

[2] = target: T1, RCC region of PfRCC-PIP (AA 1-399) (pGBKT7 two-hybrid construct) (P. falciparum); assay: two-hybrid; screen of a P. falciparum cDNA library (GAL4-AD) with the RCC region (AA 1-399) in pGBKT7 as bait
[3] = target: T2, PfCDPK7-GST (AA 994-1291) (P. falciparum) (UniProt Q8IID2); assay: pull-down; GST, or PfCDPK7-GST bound to glutathione agarose beads, incubated with 2 μg His-tagged RCC region, BSA and binding buffer; blot with anti-His; both purified
T2 sequence: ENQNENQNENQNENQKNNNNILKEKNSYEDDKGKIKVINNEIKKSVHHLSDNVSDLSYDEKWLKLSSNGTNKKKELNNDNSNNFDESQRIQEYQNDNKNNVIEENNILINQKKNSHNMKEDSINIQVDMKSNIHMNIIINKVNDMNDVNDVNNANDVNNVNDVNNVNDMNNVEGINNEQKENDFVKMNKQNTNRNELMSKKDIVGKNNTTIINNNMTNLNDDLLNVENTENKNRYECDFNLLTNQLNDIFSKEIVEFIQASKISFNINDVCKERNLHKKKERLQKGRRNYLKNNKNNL

binding [1]: binds | binding [2]: binds
B1: PfCDPK7 fragment (AA 994-1291) (pGADT7 two-hybrid clone) (domain or fragment, UniProt Q8IID2 994-1291)
chain: T2 sequence

binding [3]: binds
B2: His-tagged recombinant RCC region of PfRCC-PIP (AA 1-399) (domain or fragment, UniProt Q8I2V4 1-399)
chain: T1 sequence
